Source: article PMC7819943, “Rice protein-binding microarrays: a tool to detect cis-acting elements near promoter regions in rice”
Some of the results follow.

Amino acid sequences for entries named in this document (tags omitted).
UniProt Q0JBA9, entry or part of it: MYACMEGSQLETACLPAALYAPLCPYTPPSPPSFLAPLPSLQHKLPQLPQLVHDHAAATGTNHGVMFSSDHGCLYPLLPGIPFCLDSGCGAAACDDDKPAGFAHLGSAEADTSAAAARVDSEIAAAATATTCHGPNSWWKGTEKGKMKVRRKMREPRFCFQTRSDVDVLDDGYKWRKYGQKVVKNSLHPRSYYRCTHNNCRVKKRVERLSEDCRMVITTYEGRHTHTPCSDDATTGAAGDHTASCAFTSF

target: OsWRKY34 (Oryza sativa, UniProt Q0JBA9 1-250); assay: protein-binding microarray (RPBM); PBS, 2% BSA, 51.3 ng/ul salmon testes DNA, 50 uM zinc acetate, 200 nM TF, 25 C, 1 h; high values mean tight binding; details: protein: recombinant; tags: N-terminal polyhistidine and DsRed monomer fusion (pET32a); label: CyDye5-dUTP incorporated in the synthesized complementary strand; 3' TTTTT single-stranded linker to array surface; dsDNA, one strand shown
In short: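 Per-feature fluorescence intensity (arbitrary units), read on an Axon 4000B scanner, is the binding signal. Transcription factors carrying an N-terminal polyhistidine tag and DsRed fusion were expressed in E. coli BL21-CodonPlus and purified on Ni–NTA. A custom Agilent array, made double-stranded by primer extension with Cy5-dUTP and blocked with 2% BSA, was incubated with 200 nM protein in PBS, 2% BSA, salmon testes DNA and 50 µM zinc acetate at 25 °C for 1 h and then washed.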

| Sequence | binding signal |
| --- | --- |
| TTGCTTGCCTCCGTCCTGATCTCCACTGATTCATTGTGTTCGGAGTCACCTAGTGCAG | 9030 fluorescence intensity (a.u.) |
| GAACGGTCAAACATGTTAAAAAAAGTCAACGGCGTCAAATCGGAGTCACCTAGTGCAG | 14700 fluorescence intensity (a.u.) |
| GGACTGCTGCAAGATTTGTGTATAATTACTTTTATCTTTCCGGAGTCACCTAGTGCAG | 9860 fluorescence intensity (a.u.) |
| AGTTGAGGGATCCGTTGTATCTGGTTTTGCGGTTGAAGGACGGAGTCACCTAGTGCAG | 8570 fluorescence intensity (a.u.) |
| TTTCACAAATCCTTTCTATGCAGGTATATAAACATAAATTCGGAGTCACCTAGTGCAG | 8200 fluorescence intensity (a.u.) |
| ACTTCTAATGGATTCCAAGTTGGTTGACCCCGAGTTTTTCCGGAGTCACCTAGTGCAG | 10800 fluorescence intensity (a.u.) |
| AGCTTTCTAAATATGTTTGTTCTGTGGGCTCTGTTTGATCCGGAGTCACCTAGTGCAG | 8190 fluorescence intensity (a.u.) |
| TCTGAAGATGCTTACTTTTTAATACTACTCATTTAGTTTCCGGAGTCACCTAGTGCAG | 10400 fluorescence intensity (a.u.) |
| CGTCGTTCCTCGGGTCGCCCCAGTCTCTGATGCTGCCGGCCGGAGTCACCTAGTGCAG | 10400 fluorescence intensity (a.u.) |
| AATGCGTGAACTTTTCTTGTGATTTACATAGCGGCAAAATCGGAGTCACCTAGTGCAG | 9900 fluorescence intensity (a.u.) |
| CTGACGCGTGCACACGCACACACACATTGCCGTTTTTCACCGGAGTCACCTAGTGCAG | 8980 fluorescence intensity (a.u.) |
| TCTACTCGCCGCCAGCCGCTTCGATAAGACCGGACTCCACCGGAGTCACCTAGTGCAG | 10600 fluorescence intensity (a.u.) |
| ACAATCCTCGAGCGTACGACCCCACCTGCCCACCTAGAATCGGAGTCACCTAGTGCAG | 8150 fluorescence intensity (a.u.) |
| CGTAGTAATGTCTGAATTCACCGCCTTAATCCTGTCACGACGGAGTCACCTAGTGCAG | 8450 fluorescence intensity (a.u.) |
| AGGGGTTGGTAATTGGCAGGGAATTCCTCCTTTACTTCGCCGGAGTCACCTAGTGCAG | 8450 fluorescence intensity (a.u.) |
| CACGGCCCATCTAAACAAGCCTTTCCACAAGTCAGCGACGCGGAGTCACCTAGTGCAG | 8250 fluorescence intensity (a.u.) |
| CTAGCTTCTTGGACAGTCTGCTGAAGACTAGCCTCACTACCGGAGTCACCTAGTGCAG | 10200 fluorescence intensity (a.u.) |
| ATCTATTCATGTGTTTCAATATTGGCTTGGTCATTCCTAACGGAGTCACCTAGTGCAG | 11400 fluorescence intensity (a.u.) |
| TATGACAGTAGCTCGATCAAAGGTGTTCGTTTTTTCTTTCCGGAGTCACCTAGTGCAG | 9100 fluorescence intensity (a.u.) |
| CTTTCTTTGACTGTTGCCTTTTATTTTGTGCAGGTTGTATCGGAGTCACCTAGTGCAG | 11300 fluorescence intensity (a.u.) |
| CTCTCCCTTATATTTTTGTTTCACTGCACCATCTTTTGGGCGGAGTCACCTAGTGCAG | 9370 fluorescence intensity (a.u.) |

| Sequence | binding signal |
| --- | --- |
| GCCGTCGCCGTCGCCGTCCTCCTCGTTGTCGTTGTCGTCGCGGAGTCACCTAGTGCAG | 9000 fluorescence intensity (a.u.) |
| CGTGCCCACGTGGAAAACAACGTTGACCCCACCCGTTAGCCGGAGTCACCTAGTGCAG | 10300 fluorescence intensity (a.u.) |
| GGAGGTGTGAAGTTGTTTAAATAAAAATGAAGGGGTCGAGCGGAGTCACCTAGTGCAG | 8310 fluorescence intensity (a.u.) |
| GATTTCATCCTCATGGATTCTTCTGAAGTTTCTGGTGCTACGGAGTCACCTAGTGCAG | 8120 fluorescence intensity (a.u.) |
| CTCCATCACCACAACAGAAGTTATTACTTTACCTTTCACACGGAGTCACCTAGTGCAG | 8730 fluorescence intensity (a.u.) |
| CAAGCAGTAGTTCTTCCCAATATCCACCGCTCGCGACCTCCGGAGTCACCTAGTGCAG | 9520 fluorescence intensity (a.u.) |
| ACTAGCACTCACCAGTCAATCTTCAGTCACGGCCCTATTGCGGAGTCACCTAGTGCAG | 8650 fluorescence intensity (a.u.) |
| CCAAGTATGGAACCGTTGTTACTTGTCGTTCGCCGGCATCCGGAGTCACCTAGTGCAG | 9040 fluorescence intensity (a.u.) |
| TGCGCTGGTAGTGATGATAGTGTTGATGGGTAGGTTTTTTCGGAGTCACCTAGTGCAG | 8850 fluorescence intensity (a.u.) |
| AATGATTATAGTGCTGTTGACGGCAATCGGTTGTGAGAATCGGAGTCACCTAGTGCAG | 8600 fluorescence intensity (a.u.) |
| CAACTTCCAAGTTCCGATAGCTGGGTTCGTATCTTCATTGCGGAGTCACCTAGTGCAG | 8130 fluorescence intensity (a.u.) |
| TCTTCAAAAATCAACTGTAACTAACTTCCTCATTTTTTTCCGGAGTCACCTAGTGCAG | 9480 fluorescence intensity (a.u.) |
| CCGTCCTGCTGGCCTCACATCCGACGGCTCATGTCGCATCCGGAGTCACCTAGTGCAG | 8910 fluorescence intensity (a.u.) |
| TGGTCGTTTTGGTCATCTAGTTCGTGGTTTGTTCTTAAGACGGAGTCACCTAGTGCAG | 9090 fluorescence intensity (a.u.) |
| ATATGAGTTTTACGGGATTCTGATGCTTTCTGTTACTTTTCGGAGTCACCTAGTGCAG | 8470 fluorescence intensity (a.u.) |
| ACGCAAACTTCCTCTCTCTCTCTCTTCTCGGCGCGAATCCCGGAGTCACCTAGTGCAG | 9160 fluorescence intensity (a.u.) |
| TCTTCACGCCGCCTCCGCTCCTGAGGCCCAGCCGCCGCGCCGGAGTCACCTAGTGCAG | 8100 fluorescence intensity (a.u.) |
| CCACATCATCTGCTTCTGTGCGGCCGCTTCTATCGGCCCTCGGAGTCACCTAGTGCAG | 9620 fluorescence intensity (a.u.) |
| GAATCCTAGACCCACGCCCGGCGTCCCGCGTCGCGCGCCGCGGAGTCACCTAGTGCAG | 8160 fluorescence intensity (a.u.) |
| GCATCATAGCTCGGTTTTCATATCTTTCTTTACAATCACTCGGAGTCACCTAGTGCAG | 8830 fluorescence intensity (a.u.) |
| TGGTGGAGAAATGGTCTACTGCGCGCATGATTTTTAGCTTCGGAGTCACCTAGTGCAG | 8110 fluorescence intensity (a.u.) |

Some values from above:
Value for GAATCCTAGACCCACGCCCGGCGTCCCGCGTCGCGCGCCGCGGAGTCACCTAGTGCAG under binding signal: 8160 fluorescence intensity (a.u.)
Value for TGGTGGAGAAATGGTCTACTGCGCGCATGATTTTTAGCTTCGGAGTCACCTAGTGCAG under binding signal: 8110 fluorescence intensity (a.u.)
